Test results reported in the supplement of paper PMC12542422.
Structures can show the parent of a compound that is named as a salt. ± gives the standard deviation of the averaged measurements. The list shows a part of the results. Values are raw readings; no control value is given beside them.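 Across three biological replicates, HeLa cells were imaged for ribosome assembly using ENP1 staining (export block present or absent) or inducible tagged ribosomal protein reporters. Machine learning classified each cell's signal localization relative to DMSO controls. Hits exceeded the DMSO false-positive mean by five standard deviations and were then visually confirmed.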

Tests used:
[1] = test system: HeLa K (ENP1 immunofluorescence, +LMB); test: fraction of cells with nucleolar or nucleolar/nucleoplasmic ENP1 signal (MainHitrate); higher = more cells with nucleolar/nuclear readout signal (for ENP1 -LMB: less RNAPI inhibition; for +LMB ENP1 and RP reporters: stronger nuclear/nucleolar retention, i.e. ribosome biogenesis defect); settings: concentration: 1 µM; treatment time: 6 h; ENP1 +LMB; leptomycin B: 20 nM, last 1.5 h
[2] = test system: HeLa K (ENP1 immunofluorescence, no LMB); test: as above; settings: concentration: 1 µM; treatment time: 6 h; ENP1 -LMB; leptomycin B: none
HeLa RPS2-YFP reporter = test: fraction of reporter-positive cells with nuclear (nucleolar or nucleolar/nucleoplasmic) RPS2-YFP (MainHitrate); higher = more cells with nucleolar/nuclear readout signal (for ENP1 -LMB: less RNAPI inhibition; for +LMB ENP1 and RP reporters: stronger nuclear/nucleolar retention, i.e. ribosome biogenesis defect); settings: concentration: 1 µM; treatment time: 6 h
HeLa RPL29-GFP reporter = test: fraction of reporter-positive cells with nuclear (nucleolar or nucleolar/nucleoplasmic) RPL29-GFP (MainHitrate); higher = more cells with nucleolar/nuclear readout signal (for ENP1 -LMB: less RNAPI inhibition; for +LMB ENP1 and RP reporters: stronger nuclear/nucleolar retention, i.e. ribosome biogenesis defect); settings: concentration: 1 µM; treatment time: 6 h

CC(C)CN(C[C@@H](O)[C@H](Cc1ccccc1)NC(=O)O[C@H]1CCOC1)S(=O)(=O)c1ccc(N)cc1 [Amprenavir (Agenerase)]
fraction [1]: 0.096 ± 0.093
fraction [2]: 0.999 ± 0.0017
fraction of reporter-positive cells with nuclear (HeLa RPS2-YFP reporter): 0.114 ± 0.071
fraction of reporter-positive cells with nuclear (HeLa RPL29-GFP reporter): 0.212 ± 0.062

CN(C)CCCOc1nn(Cc2ccccc2)c2ccccc12 [Benzydamine Hydrochloride]
fraction [1]: 0.0631 ± 0.083
fraction [2]: 0.991 ± 0.016
fraction of reporter-positive cells with nuclear (HeLa RPS2-YFP reporter): 0.105 ± 0.11
fraction of reporter-positive cells with nuclear (HeLa RPL29-GFP reporter): 0.21 ± 0.077

CC1=NN(c2ccccc2)C(=O)C1 [Edaravone (MCI-186)]
fraction [1]: 0.0868 ± 0.064
fraction [2]: 0.9982 ± 0.003
fraction of reporter-positive cells with nuclear (HeLa RPS2-YFP reporter): 0.091 ± 0.046
fraction of reporter-positive cells with nuclear (HeLa RPL29-GFP reporter): 0.204 ± 0.048

CNC(=O)c1ccc(N2C(=S)N(c3ccc(C#N)c(C(F)(F)F)c3)C(=O)C2(C)C)cc1F [MDV3100 (Enzalutamide)]
fraction [1]: 0.14 ± 0.19
fraction [2]: 0.9986 ± 0.0024
fraction of reporter-positive cells with nuclear (HeLa RPS2-YFP reporter): 0.108 ± 0.049
fraction of reporter-positive cells with nuclear (HeLa RPL29-GFP reporter): 0.215 ± 0.057

Oc1cc(O)c(Cl)cn1 [Gimeracil]
fraction [1]: 0.161 ± 0.24
fraction [2]: 0.996 ± 0.0069
fraction of reporter-positive cells with nuclear (HeLa RPS2-YFP reporter): 0.0776 ± 0.018
fraction of reporter-positive cells with nuclear (HeLa RPL29-GFP reporter): 0.213 ± 0.087

CC1Cc2ccccc2N1NC(=O)c1ccc(Cl)c(S(N)(=O)=O)c1 (centres undefined) [Indapamide (Lozol)]
fraction [1]: 0.0863 ± 0.09
fraction [2]: 0.9989 ± 0.002
fraction of reporter-positive cells with nuclear (HeLa RPS2-YFP reporter): 0.136 ± 0.11
fraction of reporter-positive cells with nuclear (HeLa RPL29-GFP reporter): 0.209 ± 0.048

COc1ncnc(NS(=O)(=O)c2ccc(N)cc2)c1OC [Sulfadoxine (Sulphadoxine)]
fraction [1]: 0.115 ± 0.15
fraction [2]: 0.993 ± 0.012
fraction of reporter-positive cells with nuclear (HeLa RPS2-YFP reporter): 0.134 ± 0.088
fraction of reporter-positive cells with nuclear (HeLa RPL29-GFP reporter): 0.226 ± 0.082

COC(=O)CCc1ccc(OCC(O)CNC(C)C)cc1 (centres undefined) [Esmolol HCl]
fraction [1]: 0.099 ± 0.13
fraction [2]: 0.987 ± 0.022
fraction of reporter-positive cells with nuclear (HeLa RPS2-YFP reporter): 0.129 ± 0.094
fraction of reporter-positive cells with nuclear (HeLa RPL29-GFP reporter): 0.213 ± 0.045

CO/N=C(\C(=O)N[C@@H]1C(=O)N2C(C(=O)OCOC(=O)C(C)(C)C)=C(/C=C\c3scnc3C)CS[C@H]12)c1csc(N)n1 [Cefditoren pivoxil]
fraction [1]: 0.0624 ± 0.053
fraction [2]: 0.9984 ± 0.0027
fraction of reporter-positive cells with nuclear (HeLa RPS2-YFP reporter): 0.131 ± 0.079
fraction of reporter-positive cells with nuclear (HeLa RPL29-GFP reporter): 0.216 ± 0.067

O=c1[nH]c(=O)n(C2CCCO2)cc1F (centres undefined) [Ftorafur]
fraction [1]: 0.0892 ± 0.087
fraction [2]: 0.9987 ± 0.0022
fraction of reporter-positive cells with nuclear (HeLa RPS2-YFP reporter): 0.0612 ± 0.011
fraction of reporter-positive cells with nuclear (HeLa RPL29-GFP reporter): 0.232 ± 0.037

Nc1c2c(nc3ccccc13)CCCC2 [Tacrine HCl]
fraction [1]: 0.0977 ± 0.1
fraction [2]: 0.914 ± 0.15
fraction of reporter-positive cells with nuclear (HeLa RPS2-YFP reporter): 0.111 ± 0.082
fraction of reporter-positive cells with nuclear (HeLa RPL29-GFP reporter): 0.303 ± 0.24

CCCCc1ncc(/C=C(\Cc2cccs2)C(=O)O)n1Cc1ccc(C(=O)O)cc1 [Eprosartan Mesylate]
fraction [1]: 0.0594 ± 0.067
fraction [2]: 0.985 ± 0.026
fraction of reporter-positive cells with nuclear (HeLa RPS2-YFP reporter): 0.117 ± 0.098
fraction of reporter-positive cells with nuclear (HeLa RPL29-GFP reporter): 0.204 ± 0.088

C[C@H](CCC(=O)O)[C@H]1CC[C@H]2[C@@H]3[C@@H](O)C[C@@H]4C[C@H](O)CC[C@]4(C)[C@H]3CC[C@]12C [Ursodiol (Actigal Urso)]
fraction [1]: 0.139 ± 0.14
fraction [2]: 0.9988 ± 0.002
fraction of reporter-positive cells with nuclear (HeLa RPS2-YFP reporter): 0.11 ± 0.06
fraction of reporter-positive cells with nuclear (HeLa RPL29-GFP reporter): 0.203 ± 0.089

C=C1/C(=C\C=C2/CCC[C@]3(C)[C@@H]([C@H](C)/C=C/[C@H](C)C(C)C)CC[C@@H]23)C[C@@H](O)C[C@@H]1O [Doxercalciferol (Hectorol)]
fraction [1]: 0.0486 ± 0.024
fraction [2]: 0.9988 ± 0.0021
fraction of reporter-positive cells with nuclear (HeLa RPS2-YFP reporter): 0.0971 ± 0.068
fraction of reporter-positive cells with nuclear (HeLa RPL29-GFP reporter): 0.208 ± 0.045

C[C@@H](Oc1cc(-c2cnn(C3CCNCC3)c2)cnc1N)c1c(Cl)ccc(F)c1Cl
fraction [1]: 0.094 ± 0.038
fraction [2]: 0.9976 ± 0.0042
fraction of reporter-positive cells with nuclear (HeLa RPS2-YFP reporter): 0.0789 ± 0.053
fraction of reporter-positive cells with nuclear (HeLa RPL29-GFP reporter): 0.244 ± 0.061

CCCOc1ccc2[nH]c(NC(=O)OC)nc2c1 [Oxibendazole]
fraction [1]: 0.0874 ± 0.11
fraction [2]: 0.991 ± 0.016
fraction of reporter-positive cells with nuclear (HeLa RPS2-YFP reporter): 0.164 ± 0.085
fraction of reporter-positive cells with nuclear (HeLa RPL29-GFP reporter): 0.274 ± 0.084

O=C(O)CCCC[C@@H]1SC[C@@H]2NC(=O)N[C@@H]21 [Biotin (Vitamin B7)]
fraction [1]: 0.0727 ± 0.098
fraction [2]: 0.978 ± 0.039
fraction of reporter-positive cells with nuclear (HeLa RPS2-YFP reporter): 0.096 ± 0.078
fraction of reporter-positive cells with nuclear (HeLa RPL29-GFP reporter): 0.203 ± 0.053

COc1cc([C@@H]2c3cc4c(cc3[C@@H](O[C@@H]3O[C@@H]5CO[C@@H](C)O[C@H]5[C@H](O)[C@H]3O)[C@H]3COC(=O)[C@H]23)OCO4)cc(OC)c1O [Etoposide (VP-16)]
fraction [1]: 0.142 ± 0.18
fraction [2]: 0.9986 ± 0.0025
fraction of reporter-positive cells with nuclear (HeLa RPS2-YFP reporter): 0.0824 ± 0.042
fraction of reporter-positive cells with nuclear (HeLa RPL29-GFP reporter): 0.173 ± 0.056

CC1COc2c(N3CCN(C)CC3)c(F)cc3c(=O)c(C(=O)O)cn1c23 (centres undefined) [Ofloxacin (Floxin)]
fraction [1]: 0.0495 ± 0.022
fraction [2]: 0.9974 ± 0.0045
fraction of reporter-positive cells with nuclear (HeLa RPS2-YFP reporter): 0.099 ± 0.087
fraction of reporter-positive cells with nuclear (HeLa RPL29-GFP reporter): 0.201 ± 0.036

OCC(O)CN1CCN(c2ccccc2)CC1 (centres undefined) [Dropropizine]
fraction [1]: 0.0744 ± 0.1
fraction [2]: 0.989 ± 0.019
fraction of reporter-positive cells with nuclear (HeLa RPS2-YFP reporter): 0.112 ± 0.077
fraction of reporter-positive cells with nuclear (HeLa RPL29-GFP reporter): 0.232 ± 0.079

OC[C@@H](O)[C@@H](O)[C@H](O)[C@@H](O)CO [Sorbitol (Glucitol)]
fraction [1]: 0.133 ± 0.2
fraction [2]: 0.986 ± 0.024
fraction of reporter-positive cells with nuclear (HeLa RPS2-YFP reporter): 0.131 ± 0.11
fraction of reporter-positive cells with nuclear (HeLa RPL29-GFP reporter): 0.227 ± 0.085

C[C@@H](O)[C@H]1C(=O)N2C(C(=O)[O-])=C(SC3Cn4cnc[n+]4C3)[C@H](C)[C@H]12 (some centres undefined) [Biapenem]
fraction [1]: 0.07 ± 0.061
fraction [2]: 0.998 ± 0.0035
fraction of reporter-positive cells with nuclear (HeLa RPS2-YFP reporter): 0.104 ± 0.074
fraction of reporter-positive cells with nuclear (HeLa RPL29-GFP reporter): 0.193 ± 0.048

CN(C)CCc1c[nH]c2ccc(C[C@H]3COC(=O)N3)cc12 [Zolmitriptan (Zomig)]
fraction [1]: 0.109 ± 0.14
fraction [2]: 0.9985 ± 0.0026
fraction of reporter-positive cells with nuclear (HeLa RPS2-YFP reporter): 0.123 ± 0.088
fraction of reporter-positive cells with nuclear (HeLa RPL29-GFP reporter): 0.23 ± 0.081

NC(=O)c1ncn([C@@H]2O[C@H](CO)[C@@H](O)[C@H]2O)n1 [Ribavirin (Copegus)]
fraction [1]: 0.108 ± 0.14
fraction [2]: 0.991 ± 0.015
fraction of reporter-positive cells with nuclear (HeLa RPS2-YFP reporter): 0.116 ± 0.092
fraction of reporter-positive cells with nuclear (HeLa RPL29-GFP reporter): 0.238 ± 0.062

CN1C2=CC(=O)/C(=N\NC(N)=O)C=C2CC1S(=O)(=O)O (centres undefined) [Carbazochrome sodium sulfonate]
fraction [1]: 0.144 ± 0.12
fraction [2]: 0.9953 ± 0.0082
fraction of reporter-positive cells with nuclear (HeLa RPS2-YFP reporter): 0.112 ± 0.086
fraction of reporter-positive cells with nuclear (HeLa RPL29-GFP reporter): 0.218 ± 0.065

CCC(C)(C)c1ccc(CC(C)CN2C[C@@H](C)O[C@@H](C)C2)cc1 (some centres undefined) [Amorolfine Hydrochloride]
fraction [1]: 0.0955 ± 0.079
fraction [2]: 0.9981 ± 0.0033
fraction of reporter-positive cells with nuclear (HeLa RPS2-YFP reporter): 0.104 ± 0.075
fraction of reporter-positive cells with nuclear (HeLa RPL29-GFP reporter): 0.237 ± 0.075
